# From patent US20240400675A1
# The chains behind the UniProt entries cited, without tags or fusion partners. Where a name states a change or a piece, a line headed by the entry shows the natural chain unless it says otherwise.
# UniProt P56747: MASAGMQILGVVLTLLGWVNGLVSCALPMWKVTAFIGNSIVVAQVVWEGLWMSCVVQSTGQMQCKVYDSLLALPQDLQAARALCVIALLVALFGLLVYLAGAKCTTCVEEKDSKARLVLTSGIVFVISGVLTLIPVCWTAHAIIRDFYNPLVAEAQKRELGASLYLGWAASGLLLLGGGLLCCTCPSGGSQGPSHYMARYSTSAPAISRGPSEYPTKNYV
# Results are given in words; binding and its absence hold for the method and conditions named. Some binding calls cover weakened binding; strength is not graded here.
# Biological target: human CLDN6 (human) (UniProt P56747)
# Assay: flow cytometry on HEK293E cells expressing CLDN6
binder,measurement,value
"XENP36956 (antibody, V domains shown) VH: QVQLVQSGAEVKKPGASVKVSCKTSGYTFTEYTMHWVRQAPGQSLEWMGGIDPNNGNTHYNQKFQGRVTITVDKSASTAYMELSSLRSEDTAVYYCARILYFGRLYFDFWGAGTLVTVSS VL: DIQMTQSPSSLSASVGDRVTITCQASEDIYNRLAWYQQKPGKVPKLLISGATSLETGVPSRFSGSGSGKDYTFTISSLQPEDIATYYCQQYWSAPLTFGGGTKVEIKR",binding,binds
